From patent US10555526B2, “Substituted oxadiazoles for combating phytopathogenic fungi” (BASF SE, priority 2015, dated 2020)
Some results were stated once for a whole list of compounds, not compound by compound.

Legend:
Type in all cases: in vivo
Phakopsora pachyrhizi [1] = test: Protective control of soy bean rust on soy beans (glass house trial); settings: protective spray
Puccinia recondita [2] = test: Preventative control of brown rust on wheat (glass house trial); settings: preventative spray
Phakopsora pachyrhizi [3] = test: Curative control of soy bean rust on soy beans (glass house trial); settings: curative spray
Puccinia recondita [4] = test: Curative control of brown rust on wheat (glass house trial); settings: curative spray, untreated plants 90%
[5] = 125 ppm active compound, untreated plants 80%
[6] = 125 ppm active compound, untreated plants 70%
[7] = 600 ppm active compound, untreated plants 80%
[8] = 32 ppm active compound, untreated plants 80%
[9] = 32 ppm active compound, untreated plants 100%
[10] = 63 ppm active compound, untreated plants 90%

Structure (SMILES) | diseased leaf area (Phakopsora pachyrhizi [3]; [9]) | diseased leaf area (Phakopsora pachyrhizi [1]; [9]) | further results
O=C(Cc1ccc(-c2noc(C(F)(F)F)n2)cc1)NCc1ccccc1 [Ex-1] |  |  | diseased leaf area (Phakopsora pachyrhizi [1]; [5]): at most 15%
O=C(Cc1ccc(-c2noc(C(F)(F)F)n2)cc1)Nc1ccccc1 [Ex-2] |  |  | diseased leaf area (Phakopsora pachyrhizi [1]; [5]): at most 15%; diseased leaf area (Puccinia recondita [2]; [6]): at most 15%
COc1cc(F)ccc1NC(=O)Cc1ccc(-c2noc(C(F)(F)F)n2)cc1 [Ex-3] |  |  | diseased leaf area (Phakopsora pachyrhizi [3]; [7]): at most 15%
COc1ccccc1NC(=O)Cc1ccc(-c2noc(C(F)(F)F)n2)cc1 [Ex-4] |  |  | diseased leaf area (Phakopsora pachyrhizi [3]; [7]): at most 15%
O=C(Cc1ccc(-c2noc(C(F)(F)F)n2)cc1)NCc1ccncc1 [Ex-5] |  |  | diseased leaf area (Phakopsora pachyrhizi [3]; [7]): at most 15%
CNC(=O)Cc1ccc(-c2noc(C(F)(F)F)n2)cc1 [Ex-6, N-methyl-2-[4-[5-(trifluoromethyl)-1,2,4-oxadiazol-3-yl]phenyl]acetamide] |  |  | diseased leaf area (Phakopsora pachyrhizi [1]; [5]): at most 15%; diseased leaf area (Puccinia recondita [4]; 600 ppm active compound): at most 15%
O=C(Cc1ccc(-c2noc(C(F)(F)F)n2)cc1)NC1CC1 [Ex-7] |  |  | diseased leaf area (Phakopsora pachyrhizi [1]; [5]): at most 15%; diseased leaf area (Puccinia recondita [2]; [6]): at most 15%
CCNC(=O)Cc1ccc(-c2noc(C(F)(F)F)n2)cc1 [Ex-8] |  |  | diseased leaf area (Phakopsora pachyrhizi [1]; [5]): at most 15%; diseased leaf area (Puccinia recondita [4]; 600 ppm active compound): at most 15%
O=C(Cc1ccc(-c2noc(C(F)(F)F)n2)cc1)N1CCC1 [Ex-9] |  |  | diseased leaf area (Phakopsora pachyrhizi [1]; [5]): at most 15%; diseased leaf area (Puccinia recondita [4]; 600 ppm active compound): at most 15%
CNC(=O)C1(c2ccc(-c3noc(C(F)(F)F)n3)cc2)CC1 [Ex-10, N-methyl-1-[4-[5-(trifluoromethyl)-1,2,4-oxadiazol-3-yl]phenyl]cyclopropanecarboxamide] |  |  | diseased leaf area (Phakopsora pachyrhizi [1]; [8]): at most 15%
CN(C)C(=O)C1(c2ccc(-c3noc(C(F)(F)F)n3)cc2)CC1 [Ex-11] |  |  | diseased leaf area (Phakopsora pachyrhizi [1]; [8]): at most 15%
CCNC(=O)C1(c2ccc(-c3noc(C(F)(F)F)n3)cc2)CC1 [Ex-12] | at most 16% | at most 13% | 
O=C(NC1CC1)C1(c2ccc(-c3noc(C(F)(F)F)n3)cc2)CC1 [Ex-13] | at most 16% | at most 13% | 
C=CCNC(=O)C1(c2ccc(-c3noc(C(F)(F)F)n3)cc2)CC1 [Ex-14] | at most 16% | at most 13% | 
COc1ccccc1NC(=O)C1(c2ccc(-c3noc(C(F)(F)F)n3)cc2)CC1 [Ex-15] | at most 16% | at most 13% | 
O=C(Nc1ccccc1)C1(c2ccc(-c3noc(C(F)(F)F)n3)cc2)CC1 [Ex-16] |  | at most 13% | 
O=C(NCc1ccccc1)C1(c2ccc(-c3noc(C(F)(F)F)n3)cc2)CC1 [Ex-17] |  | at most 13% | 
CNC(=O)C(F)(F)c1ccc(-c2noc(C(F)(F)F)n2)cc1 [Ex-18] | at most 16% | at most 13% | 
COc1ccccc1NC(=O)C(F)(F)c1ccc(-c2noc(C(F)(F)F)n2)cc1 [Ex-19] |  | at most 13% | 
O=C(Nc1ccccc1)C(F)(F)c1ccc(-c2noc(C(F)(F)F)n2)cc1 [Ex-20, 2,2-difluoro-N-phenyl-2-[4-[5-(trifluoromethyl)-1,2,4-oxadiazol-3-yl]phenyl]acetamide] | at most 16% | at most 13% | 
O=C(NCc1ccccc1)C(F)(F)c1ccc(-c2noc(C(F)(F)F)n2)cc1 [Ex-21] |  | at most 13% | 
CN(C)C(=O)C(F)(F)c1ccc(-c2noc(C(F)(F)F)n2)cc1 [Ex-22] | at most 16% | at most 13% | diseased leaf area (Puccinia recondita [4]; 63 ppm active compound): at most 4%
CCNC(=O)C(F)(F)c1ccc(-c2noc(C(F)(F)F)n2)cc1 [Ex-23] | at most 16% | at most 13% | diseased leaf area (Puccinia recondita [4]; 63 ppm active compound): at most 4%
O=C(NC1CC1)C(F)(F)c1ccc(-c2noc(C(F)(F)F)n2)cc1 [Ex-24] | at most 16% | at most 13% | diseased leaf area (Puccinia recondita [4]; 63 ppm active compound): at most 4%

Structure (SMILES) | diseased leaf area (Phakopsora pachyrhizi [3]; [9]) | diseased leaf area (Phakopsora pachyrhizi [1]; [9]) | further results
C=CCNC(=O)C(F)(F)c1ccc(-c2noc(C(F)(F)F)n2)cc1 [Ex-25] | at most 16% | at most 13% | diseased leaf area (Puccinia recondita [4]; 63 ppm active compound): at most 4%
N#CCNC(=O)Cc1ccc(-c2noc(C(F)(F)F)n2)cc1 [Ex-26] | at most 16% | at most 13% | diseased leaf area (Puccinia recondita [2]; [10]): at most 7%; diseased leaf area (Puccinia recondita [4]; 63 ppm active compound): at most 4%
CON=CCNC(=O)Cc1ccc(-c2noc(C(F)(F)F)n2)cc1 [Ex-27] | at most 16% | at most 13% | diseased leaf area (Puccinia recondita [2]; [10]): at most 7%; diseased leaf area (Puccinia recondita [4]; 63 ppm active compound): at most 4%
CON=C(C)CNC(=O)Cc1ccc(-c2noc(C(F)(F)F)n2)cc1 [Ex-28] | at most 16% | at most 13% | diseased leaf area (Puccinia recondita [2]; [10]): at most 7%
CON=C(C)CN(C)C(=O)Cc1ccc(-c2noc(C(F)(F)F)n2)cc1 [Ex-29] | at most 16% | at most 13% | diseased leaf area (Puccinia recondita [4]; 63 ppm active compound): at most 4%
CON=CCN(C)C(=O)C(F)(F)c1ccc(-c2noc(C(F)(F)F)n2)cc1 [Ex-30] | at most 16% | at most 13% | 
CON=CCNC(=O)C(F)(F)c1ccc(-c2noc(C(F)(F)F)n2)cc1 [Ex-31] | at most 16% | at most 13% | 
CON=CCN(C)C(=O)Cc1ccc(-c2noc(C(F)(F)F)n2)cc1 [Ex-32] | at most 16% | at most 13% | diseased leaf area (Puccinia recondita [2]; [10]): at most 7%; diseased leaf area (Puccinia recondita [4]; 63 ppm active compound): at most 4%
CON=C(C)CN(C)C(=O)C(F)(F)c1ccc(-c2noc(C(F)(F)F)n2)cc1 [Ex-33] | at most 16% |  | 
CN(CC#N)C(=O)C(F)(F)c1ccc(-c2noc(C(F)(F)F)n2)cc1 [Ex-34] | at most 16% | at most 13% | 
CN(CC#N)C(=O)Cc1ccc(-c2noc(C(F)(F)F)n2)cc1 [Ex-35] | at most 16% | at most 13% | diseased leaf area (Puccinia recondita [2]; [10]): at most 7%; diseased leaf area (Puccinia recondita [4]; 63 ppm active compound): at most 4%
N#CCNC(=O)C(F)(F)c1ccc(-c2noc(C(F)(F)F)n2)cc1 [Ex-36] | at most 16% | at most 13% | 
C#CCNC(=O)C(F)(F)c1ccc(-c2noc(C(F)(F)F)n2)cc1 [Ex-37] | at most 16% | at most 13% | diseased leaf area (Puccinia recondita [2]; [10]): at most 7%; diseased leaf area (Puccinia recondita [4]; 63 ppm active compound): at most 4%
C#CCNC(=O)Cc1ccc(-c2noc(C(F)(F)F)n2)cc1 [Ex-38] | at most 16% | at most 13% | diseased leaf area (Puccinia recondita [2]; [10]): at most 7%; diseased leaf area (Puccinia recondita [4]; 63 ppm active compound): at most 4%
C#CCN(C)C(=O)C(F)(F)c1ccc(-c2noc(C(F)(F)F)n2)cc1 [Ex-39] | at most 16% | at most 13% | 
C#CCN(C)C(=O)Cc1ccc(-c2noc(C(F)(F)F)n2)cc1 [Ex-40] | at most 16% | at most 13% | diseased leaf area (Puccinia recondita [2]; [10]): at most 7%; diseased leaf area (Puccinia recondita [4]; 63 ppm active compound): at most 4%
CC(=O)CNC(=O)C(F)(F)c1ccc(-c2noc(C(F)(F)F)n2)cc1 [Ex-41] | at most 16% | at most 13% | 
CON=C(C)CNC(=O)C(F)(F)c1ccc(-c2noc(C(F)(F)F)n2)cc1 [Ex-42] | at most 16% | at most 13% | 
CCN(C)C(=O)C(F)(F)c1ccc(-c2noc(C(F)(F)F)n2)cc1 [Ex-43] |  | at most 13% | 
CC1(NC(=O)C(F)(F)c2ccc(-c3noc(C(F)(F)F)n3)cc2)CC1 [Ex-44] | at most 16% | at most 13% | 
CCN(CC)C(=O)C(F)(F)c1ccc(-c2noc(C(F)(F)F)n2)cc1 [Ex-45] |  | at most 13% | 
CC(C)NC(=O)C(F)(F)c1ccc(-c2noc(C(F)(F)F)n2)cc1 [Ex-46] | at most 16% | at most 13% | 
CNC(=O)Cc1ccc(-c2noc(C(F)(F)F)n2)cn1 [Ex-47] | at most 16% | at most 13% | 
CN(C)C(=O)Cc1ccc(-c2noc(C(F)(F)F)n2)cn1 [Ex-48] | at most 16% |  | 
